# Small-molecule microarray binding calls

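Each compound is printed as two spots on a slide made to bind it covalently, so it has no test concentration; the read-out is fluorescence of the bound, labelled oligonucleotide. For the PreQ1, TPP and SAM-II riboswitches the laboratory earlier reported (doi:10.1038/s41467-019-09493-3) 1 µM RNA, 2 h, and a rule that included a mean Z-score above 3 (spot signal-to-noise against the whole library), a score well above that on a control array, and duplicate spots agreeing (coefficient of variation under 100). The data file gives only the calls; its cut-offs may differ, and compounds hitting several targets are kept. The calls come from the array alone, and fixing a compound to the slide can hide its binding.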 “active” means called a hit, “inactive” means screened and not called a hit. The compounds are a random part of those screened. A target missing from an entry has no call listed here. A dash means that no call is listed here.

Targets (5′ to 3′):
PreQ1: PreQ1 riboswitch RNA pseudoknot, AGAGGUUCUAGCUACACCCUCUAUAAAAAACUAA. From B. subtilis. About 170 hits among about 24,000 compounds.
TPP: TPP riboswitch RNA three-way junction, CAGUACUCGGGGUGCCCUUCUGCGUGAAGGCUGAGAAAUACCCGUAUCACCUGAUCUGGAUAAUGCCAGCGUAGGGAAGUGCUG. About 160 hits among about 24,000 compounds.
SAM-II: SAM-II riboswitch RNA pseudoknot, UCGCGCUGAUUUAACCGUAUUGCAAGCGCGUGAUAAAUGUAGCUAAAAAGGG. About 200 hits among about 21,000 compounds.

structure	PreQ1	TPP	SAM-II
Clc1ccccc1COc1ccc(CNCc2cccnc2)cc1	inactive	inactive	inactive
CCOc1ccccc1CNCc1c(C(=O)O)n(C)c2ccccc12	inactive	inactive	-
Cc1[nH]c2c(C)ccc(C)c2c1CC(=O)NCC1CNCCOC1 (stereo not drawn)	inactive	inactive	inactive
COCCCn1c(C)c(C)c(S(=O)(=O)c2ccc(F)cc2)c1N	inactive	inactive	inactive
CC(=O)c1ccc(N2CC(=O)C(c3nc4ccccc4[nH]3)=C2N)cc1	inactive	inactive	-
COc1ccc(CNCc2ccc(F)cc2)c(OC)c1	inactive	inactive	inactive
CCOC(=O)c1sc2nc(C)nc(NCc3ccccc3OC)c2c1C	inactive	inactive	inactive
Cc1cc2nn(-c3ccccc3)nc2cc1N	inactive	inactive	inactive
Cn1c(=O)n(-c2ccc(N)cc2)c(=O)n1C	inactive	inactive	inactive
O=C(c1ccc(-c2cn(-c3ccccc3)cn2)cc1)N1CCC(O)(CO)CC1	inactive	inactive	inactive
CCCCN1CCc2c1nc1ccc(Br)cc1c2N.Cl	inactive	inactive	inactive
NCCNC1CCS(=O)(=O)C1 (stereo not drawn)	inactive	inactive	inactive
CNC(=O)c1nn(C)c2c1C(C)(C)Cc1cnc(Nc3ccc(N4CCN(C)CC4)cc3)nc1-2	inactive	inactive	inactive
Cc1ccc(C)c(OCCCC(C)(C)C(=O)O)c1	inactive	inactive	inactive
N#CC1=C(Nc2ccccc2Cl)SC(c2ccncc2)NC1=O (stereo not drawn)	inactive	inactive	inactive
OCCCNc1cc(-c2ccnc(Nc3cccc(Cl)c3)n2)ccn1	inactive	inactive	inactive
Cc1ccc(S(=O)(=O)c2nc(-c3ccc(F)cc3)oc2NCc2cccnc2)cc1	inactive	inactive	-
CCOc1ccc(C(=O)N2CCN(C(=O)c3nonc3N)CC2)cc1	inactive	inactive	-
Cc1ccc(Nc2cc(C)nc3nc(-c4cccnc4)nn23)c(C)c1	inactive	inactive	-
O=C(Nc1nnc(C(F)(F)F)s1)c1c(F)cccc1F	inactive	inactive	inactive
COC(=O)c1c(N)n(-c2ccc(Cl)cc2)c2nc3ccccc3nc12	inactive	inactive	inactive
CC12CN3CC(C)(CN(C1)C31CCCCC1)C2O (stereo not drawn)	inactive	inactive	inactive
CC(=O)Nc1sc2c(c1C(c1cccc(Cl)c1)N1CCN(CCO)CC1)CCCC2 (stereo not drawn)	inactive	inactive	inactive
O=C1CCCN1CCCC(=O)N1CC[C@@H](c2ccc3c(c2)OCO3)[C@H](O)C1	inactive	inactive	inactive
COc1ccc(S(=O)(=O)N2CCN(c3cc(Nc4ccc(C)cc4)nc(C)n3)CC2)cc1	inactive	inactive	-
Cc1ccccc1NC(=O)NCCN1CC1	inactive	active	active
CCCCCn1c(C(O)CC)nc2ccccc21 (stereo not drawn)	inactive	inactive	-
NCCc1cnc[nH]1	inactive	inactive	inactive
Cc1cc(Nc2ccc(N(C)C)cc2)n2nc(-c3ccccc3C)nc2n1	inactive	inactive	-
CCC(CO)N(Cc1ccccn1)C(=O)c1cc(-c2ccccc2)nn1C (stereo not drawn)	inactive	inactive	inactive
CCN(CC)CCNc1cc(C)nc2cc(-c3ccc(OC)c(OC)c3)nn12	inactive	inactive	-
CCOC(=O)c1ccc2ncc(C(=O)OCC)c(NCCN(C)C)c2c1	inactive	inactive	inactive
Cc1nn(C)c(C)c1CN1CCC2(CCC(=O)N(CCCO)C2)CC1	inactive	inactive	inactive
Cc1ccc2ncnc(Nc3ccc(Cl)cc3)c2c1	inactive	inactive	inactive
c1ccc([C@H]2CN3CCSC3=N2)cc1	inactive	inactive	inactive
COc1ccccc1NC(=O)Oc1cccc(OC(=O)c2ccccc2)c1	inactive	inactive	inactive
COc1ccc(-c2nn3c(NCCCN4CCOCC4)cc(C)nc3c2C)cc1	inactive	inactive	-
Fc1cccc(Cl)c1Cn1ncnc1-c1cn(CC2CCCNC2)nn1 (stereo not drawn)	inactive	inactive	inactive
CCCCN(CCCC)CC(O)c1cc(Cl)cc2c1-c1ccc(Cl)cc1C2=Cc1ccc(Cl)cc1 (stereo not drawn)	inactive	active	active
CC1CCN(Cc2nnn(-c3nonc3N)c2CN2CCC(C)CC2)CC1	inactive	inactive	inactive
COCC(C)NCCc1nnc(N)s1 (stereo not drawn)	inactive	inactive	inactive
COc1cc(Cl)ccc1NCc1ccc(O)c2ncccc12	inactive	inactive	inactive
CCCCNc1cc(C)nc2c(-c3ccc(F)cc3)cnn12	inactive	inactive	-
Cc1ccc(C2CC(C(F)(F)F)n3nc(C(=O)Nc4cccc(C(C)O)c4)cc3N2)cc1 (stereo not drawn)	inactive	inactive	inactive
N#CC1=C(N)N(c2ccc(F)cc2)C(=O)C1	inactive	inactive	inactive
CS(=O)(=O)O.Cc1cc2c(cc1[N+](=O)[O-])NC(CNC(C)C)CC2 (stereo not drawn)	inactive	inactive	inactive
OCc1ccc(CC2CCN(Cc3cc(-c4ccccc4)no3)C2)cc1 (stereo not drawn)	inactive	inactive	inactive
CCOc1ccc(Nc2nc(-c3c(C)nc4ccccn34)cs2)cc1	inactive	inactive	inactive
COc1ccccc1NC(=O)c1c(N)sc2c1CCCC2	inactive	inactive	inactive
CSc1ccc(NC(=O)Nc2ccccc2C(N)=O)cc1	inactive	inactive	inactive

Repeated from the top, 3 entries:

{"structure": "Clc1ccccc1COc1ccc(CNCc2cccnc2)cc1", "PreQ1": "inactive", "TPP": "inactive", "SAM-II": "inactive"}
{"structure": "CCOc1ccccc1CNCc1c(C(=O)O)n(C)c2ccccc12", "PreQ1": "inactive", "TPP": "inactive"}
{"structure": "Cc1[nH]c2c(C)ccc(C)c2c1CC(=O)NCC1CNCCOC1", "stereo": "stereo not drawn", "PreQ1": "inactive", "TPP": "inactive", "SAM-II": "inactive"}

Data from the ROBIN nucleic acid binder screens, doi:10.1002/anie.202211358.